A short description of this experiment: qHTS Assay for Lipid Storage Modulators in Drosophila S3 Cells.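 On cell number change: cells counted by Cell Tracker Red CMTPX staining in the red channel.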 The note with it: BODIPY lipid droplet fluorescence, 18-24 h; for cell number change: measured here: cell count max response, cells fed with added oleic acid. The essentials:
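Drosophila S3 cells got compounds at several concentrations plus oleic acid (400 uM solution). Laser-scanning cytometry with 488 nm excitation read lipid droplets at 500-530 nm and cells at 575-640 nm. Percent activity was relative to 20 uM Triacsin C.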
(Quantitative high-throughput screening tests each substance at several concentrations.)

Setting [1] is: measured here: cell number channel AC50, cells fed with added oleic acid.
Where [2] appears, read: measured here: lipid fluorescence (Fed channel) AC50, cells fed with added oleic acid.

Each structure is given as a SMILES string. Some of the results follow. Further columns of the screen follow, without active or inactive calls. The list favours compounds with an active or inconclusive main result. Words in brackets tell the shape of the fitted curve; partial curves, single points and poor fits give uncertain potencies.

The term AC50 denotes the midpoint of the concentration-response curve, whichever way the signal moves. Read a high AC50 as activity only at high concentration. Turning to `COCCn1ccc2c(OCC(=O)Nc3ccccc3OC)cccc2c1=O`, under setting [1], the AC50 is 1.84 µM [rising, partial curve].
As for `Cc1ccc(S(=O)(=O)N(C)c2ccc(C(=O)N3CCc4ccccc4C3)cc2)cc1`, the cell number change was -24.2%. Under setting [2], the AC50 is 6.51 µM [rising, single point].
Consider `CN1OCC(S(=O)(=O)c2ccccc2)C1c1ccccc1` (configuration not stated), for which the cell number change was -11%.
Take `COc1ccc(CCNc2cc(N3CCN(C(=O)c4ccccc4F)CC3)ccc2[N+](=O)[O-])cc1OC`: the AC50 under setting [1] is 0.731 µM [falling, partial curve, poor fit].
Regarding `O=C(COC(=O)c1cc(Cl)ccc1Cl)NC1CCCC1`, the cell number change is -10.3%.
As for `COc1ccc(CCNC(=O)c2cc3cccc(OC)c3oc2=O)cc1OC`, the cell number change is -39.7%. Besides, the AC50 under setting [1] is 6.51 µM [falling, partial curve, poor fit].
Take `CCN(CC)CC#CC(C)OCOCC#CCOC` (configuration not stated): the cell number change was -16.2%.
With `Cc1noc(C)c1COc1ccccc1C(=O)NC(C)c1ccc(Cl)cc1` (configuration not stated), the cell number change was determined as 11.1%. The AC50 under setting [1] is 0.13 µM [falling, full curve, poor fit].
Take `Cc1cccc(N(CC(=O)N=Nc2c(O)[nH]c3ccccc23)S(C)(=O)=O)c1C`: the cell number change amounted to 1.25%. For the same compound, the AC50 under setting [1] was 0.092 µM [falling, full curve, poor fit]. Also, under setting [2], the half-maximal activity concentration (AC50) is 0.13 µM [falling, full curve].
As to `COC(=O)[C@H](Cc1ccccc1)NC(=O)O[C@H]1C(=O)c2ccc(OC)cc2O[C@@H]1c1ccc2c(c1)OCO2`, the cell number change was found to be 13.4%. Moreover, the half-maximal activity concentration (AC50) under setting [2] was 4.61 µM [rising, partial curve].
In the case of `COc1ccccc1NC(=O)COc1ccc(/C=N/NC(=O)c2cccnc2)cc1`, the cell number change was -10.6%.
Turning to `CCCCc1cc(=O)oc2c(C)c(OCc3nn[nH]n3)ccc12`, the cell number change was 23.1%. Moreover, the AC50 under setting [2] was 0.00517 µM [rising, full curve, poor fit].
As for `CC(=O)c1cc(C#N)c(Oc2cc(C)cc(C)c2)nc1C`, the cell number change is 9.42%.
For `CCOC(=O)CSC1=C(C#N)C(c2ccc(C)s2)CC(=O)N1` (configuration not stated), the cell number change is -4.27%. Also, under setting [2], the AC50 is 18.4 µM [falling, partial curve, poor fit].
Consider `O=C(CSCc1ccc(Cl)cc1)Nc1ccc(S(=O)(=O)N2CCCCCC2)cc1`, for which the cell number change is -17.5%. Besides, the AC50 under setting [2] was 10.3 µM [falling, partial curve, poor fit].
For `Cc1ccc(-c2csc(=S)n2CC(=O)OCC(=O)NCc2ccco2)cc1`, the cell number change was -36.4%. The AC50 under setting [1] was 29.1 µM [falling, single point]. In addition, the AC50 under setting [2] is 29.1 µM [falling, single point].
As for `CCCCn1c(O)c(N=Nc2ccccc2O)c2ccccc21`, the cell number change was -74%. Under setting [1], the AC50 is 16.4 µM [falling, single point].
`O=C(CSc1nnnn1C1CC1)Nc1cccc(S(=O)(=O)N2CCCC2)c1`: the cell number change was -18.5%. Moreover, the AC50 under setting [2] was 16.4 µM [falling, single point].
As for `O=C(NC1CC1)[C@@H]1CSC2c3ccccc3C(=O)N21` (some centres not stated), the cell number change came out at 12.8%.
Turning to `CC(=O)c1sc(NC(=O)CCCc2nc3ccccc3c(=O)[nH]2)nc1-c1ccccc1`, the cell number change is -0.634%.
With `CCCCOC(=O)Nc1ccc(N2CCCCC2)cc1`, the cell number change was -44.3%. In addition, the AC50 under setting [1] is 29.1 µM [falling, single point]. The AC50 under setting [2] is 0.00517 µM [rising, full curve, poor fit].
Turning to `O=C1CN(S(=O)(=O)c2ccc(Cl)cc2)CC(=O)N1CCc1ccccc1`, the cell number change was found to be 22.9%. The AC50 under setting [2] is 6.51 µM [falling, single point].
With `Cc1ccc(S(=O)(=O)c2c(N)n(CCCO)c3nc4ccccc4nc23)cc1`, the cell number change worked out at 8.95%. Besides, the half-maximal activity concentration (AC50) under setting [2] is 5.8 µM [rising, partial curve].
For the compound `COc1cccc(NC(=O)CN(C)C(=O)CC(C)c2ccccc2)c1` (configuration not stated), the cell number change amounted to 10.8%. Further, the half-maximal activity concentration (AC50) under setting [1] was 0.82 µM [rising, partial curve]. Further, the AC50 under setting [2] is 18.4 µM [falling, single point].
On to `COc1ccc(NS(=O)(=O)c2csc(C(N)=O)c2)cc1`, for which the cell number change is -21.8%. Further, the AC50 under setting [1] is 0.731 µM [rising, single point].
`O=C(O)c1c[nH]c2ccc(S(=O)(=O)N3CCN(c4ccc(F)cc4)CC3)cc2c1=O`: the cell number change is -19.2%. For the same compound, the concentration at half-maximal activity (AC50) under setting [2] is 6.51 µM [falling, single point].
Consider `O=[N+]([O-])c1ccc(N2CCN(c3ccc(F)cc3)CC2)nc1`, for which the cell number change was -25.4%. Under setting [2], the AC50 was 13 µM [falling, partial curve, poor fit].
On to `COc1ccc(CNC(=O)CN(C(=O)CCC(=O)Nc2nccs2)c2ccc3c(c2)OCO3)cc1`, for which the cell number change stood at 159%. Moreover, under setting [1], the concentration at half-maximal activity (AC50) is 20.6 µM [rising, partial curve]. Moreover, under setting [2], the AC50 is 29.1 µM [falling, single point].
As for `COCc1ccc(CN2CCC(C(=O)Nc3cccc(-c4cccc(Cl)c4)c3)CC2)o1`, the cell number change is -27.9%. Besides, the AC50 under setting [2] is 16.4 µM [falling, partial curve].
For the compound `C=CCOc1nc(N2CCCC2)nc(N2CCCC2)n1`, the cell number change is 156%. In addition, the AC50 under setting [1] is 18.4 µM [rising, partial curve].
Regarding `Cc1cc(C)n(CCCNC(=O)c2ccc(C)o2)n1`, the cell number change is -32.9%. Under setting [1], the AC50 is 5.17 µM [falling, full curve]. For the same compound, the AC50 under setting [2] was 0.146 µM [rising, full curve, poor fit].
As to `COc1ccc(C(=O)NC(=S)Nc2cccc(S(=O)(=O)N3CCOCC3)c2)cc1`, the cell number change stood at 7.57%.
In the case of `N=c1oc2c3c4c(cc2cc1C(=O)Nc1ccccc1)CCCN4CCC3`, the AC50 under setting [2] is 13 µM [falling, partial curve, poor fit].
In the case of `CCN(CC(=O)NCc1cccs1)C(=O)c1ccc(S(=O)(=O)N(C)C)cc1`, the cell number change is 58.1%. Further, the AC50 under setting [1] is 20.6 µM [rising, single point]. Under setting [2], the half-maximal activity concentration (AC50) was 13 µM [rising, partial curve].
In the case of `Cn1c(SCC(=O)NC2CCCCCC2)nnc1-c1ccco1`, the cell number change worked out at 3.96%. Under setting [2], the AC50 was 29.1 µM [falling, single point].
As for `CCCc1c(C(=O)Nc2ccc(F)cc2F)cnn1-c1ccccc1`, the cell number change was -23.5%. Also, the AC50 under setting [2] was 32.6 µM [falling, single point].
Turning to `Cc1ccc(Sc2nc3ccc(C)cn3c(=O)c2/C=N/O)cc1`, the AC50 under setting [1] is 0.00461 µM [rising, full curve, poor fit].
For the compound `O=C(Nc1ccc(Cl)cc1)c1nc[nH]c1C(=O)NCc1ccccc1`, the cell number change is -44%. Besides, under setting [1], the AC50 is 0.411 µM [falling, full curve]. The AC50 under setting [2] was 0.461 µM [falling, partial curve, poor fit].
On to `Cc1ccc(C)c(OCCC(=O)OCC(=O)N2CCN(S(=O)(=O)c3ccc(Cl)cc3)CC2)c1`, for which the cell number change worked out at 50%. Besides, under setting [1], the AC50 was 4.11 µM [rising, single point].
In the case of `O=C(NCCCNCc1ccccc1)c1ccccn1`, the cell number change worked out at 2.19%. Moreover, the AC50 under setting [2] is 0.00517 µM [falling, full curve, poor fit].
In the case of `O=C(CCNS(=O)(=O)c1ccccc1Cl)N1CCN(c2ccccn2)CC1`, the cell number change was -6.87%. Moreover, the AC50 under setting [2] was 18.4 µM [rising, partial curve, poor fit].
Take `CCC(C)(C)c1nnc(NC(=O)C2CC(=O)N(CCc3ccc(F)cc3)C2)s1` (configuration not stated): the cell number change came out at 15.5%.
Turning to `COc1cccc(OCc2cc(C(=O)NCc3ccccn3)no2)c1`, the cell number change was determined as 4.58%. Also, the AC50 under setting [2] is 18.4 µM [falling, partial curve].
With `CS(=O)(=O)N(CC(=O)N1CCCCCC1)c1cccc([N+](=O)[O-])c1`, the cell number change amounted to 23.4%.
As for `Cn1cnnc1SCC(=O)NC1CCCN(Cc2ccccc2F)C1` (configuration not stated), the cell number change came out at 5.67%.
For `COc1ccc(-c2noc(N3CCC(C(=O)NCc4ccc(F)cc4)CC3)n2)cc1`, the cell number change was found to be 20.5%. The AC50 under setting [2] was 8.2 µM [falling, partial curve, poor fit].
Turning to `Cc1nc(-c2ccccn2)sc1C(=O)Nc1ccc(F)cc1`, the cell number change was -20.4%. Also, the concentration at half-maximal activity (AC50) under setting [2] is 23.1 µM [falling, partial curve, poor fit].
As to `CCN(CC)S(=O)(=O)c1ccc(N2CCCCC2)c(NC(=O)/C=C/c2cc(OC)c(OC)c(OC)c2)c1`, the cell number change was 29.4%.
Same read-out and setting: with `Cc1cc(Cl)c2oc(C(=O)N(C)C(C)c3ccccn3)c(C)c2c1` (configuration not stated) the figure was 4.4%.
For the compound `COc1cccc(NC(=O)CSc2nnc3c(n2)[nH]c2ccc(C)cc23)c1`, the cell number change worked out at 25.6%. The AC50 under setting [1] was 6.51 µM [rising, single point]. In addition, the AC50 under setting [2] was 5.17 µM [rising, single point].
For the compound `Cc1[nH]c2ccc(-c3nnc(SCC(=O)c4ccc(F)cc4)o3)cc2c1C`, the cell number change worked out at 1.63%. Further, the AC50 under setting [2] was 8.2 µM [rising, partial curve, poor fit].
As for `O=C(O)Cn1nc(-c2ccccc2)c2ccccc2c1=O`, the cell number change came to 8.65%. Moreover, the AC50 under setting [2] is 3.66 µM [falling, partial curve].
For `CCN(C(=S)Nc1ccc(OC(F)F)cc1)C1CCCCC1`, the cell number change is -1.47%. Under setting [1], the AC50 was 0.0517 µM [falling, partial curve, poor fit].
Regarding `Clc1ccccc1OCCCOc1cccc2cccnc12`, the cell number change amounted to 7.66%. Moreover, the AC50 under setting [1] was 2.91 µM [rising, partial curve].
For `COc1ccccc1NC(=O)CSc1nc2c(oc3ccccc32)c(=O)n1C`, the cell number change was -40.6%. The AC50 under setting [1] was 16.4 µM [falling, single point]. Besides, under setting [2], the AC50 is 14.6 µM [falling, partial curve].
In the case of `COc1ccc(-c2nc(CN(C)C(C)c3ccon3)c(C)o2)c(C)c1C` (configuration not stated), the cell number change stood at 28.9%. Under setting [2], the half-maximal activity concentration (AC50) is 0.00461 µM [rising, full curve, poor fit].
`COc1ccc(C2=NO[C@@H]3[C@@H]4C[C@@H]([C@H]5C(=O)N(c6ccc7c(c6)OCO7)C(=O)[C@@H]45)[C@H]23)cc1OC`: the cell number change was 0.87%. The AC50 under setting [2] was 2.31 µM [rising, partial curve, poor fit].
`COc1ccccc1CN(C)C(=O)c1cc(C)nc2ccccc12`: the cell number change was determined as 9.21%.
As to `COc1ccc(C(=O)N/C(=C\c2ccc3c(c2)OCO3)C(=O)NCCc2nc3ccccc3[nH]2)cc1`, the cell number change turned out to be 1.57%. Moreover, the AC50 under setting [2] is 3.26 µM [falling, partial curve, poor fit].
Consider `O=C(COC(=O)Cc1cn2ccsc2n1)NC12CC3CC(CC(C3)C1)C2`, for which the cell number change was -14.1%. In addition, the AC50 under setting [2] was 32.6 µM [falling, single point].
